Source: PubChem BioAssay AID330 (DTP/NCI, 2004)
The list shows only some results of the screen, not a fair sample: it is rich in T/C values a quarter to a half above the control, in often repeated tests (any T/C) and in doses without a T/C. Further doses and runs are listed elsewhere. T/C is the treated group as % of the vehicle group. Some doses have a count of surviving animals in place of a T/C: the source files T/C as zero there, which appears to mark a toxic dose or a test without result, not a measured value. Some doses without a T/C left all or most animals alive at the check, yet need not have been tolerated: survival well below the control is almost never listed, so the zero probably covers shortened survival too. Survivors were counted at the toxicity check, usually on the fifth day, unless a day is given; later deaths do not show. Schedule codes are those of the source, taken here to give the interval after Q, in days (D) or hours (H), and the number of doses after X. Some entries hold several experiments; their values stand side by side, smallest first. Where survival is the endpoint, the PubChem record calls one and a half times the control and up active, and a quarter to a half above the control has no call in these data; cut-offs in other NCI protocols can differ. Some T/C values carry the count of animals alive at the toxicity check (mostly the fifth day); where none is given, no animal had died by that day. Brackets with × count equal records among those shown.

Tested on: P388 leukemia ip, CD2F1 mice, survival T/C
Assay: NCI In Vivo Anticancer Drug Screen. Data for tumor model P388 Leukemia (intraperitoneal) in CD2F1 (CDF1) mice
Conditions: T/C endpoint: median survival time, higher T/C = longer survival
[1] = dose: 200.0 mg/kg/injection, schedule: Q04DX003 (ip), vehicle: saline
[2] = dose: 400.0 mg/kg/injection, schedule: Q04DX003 (ip), vehicle: saline
[3] = dose: 200.0 mg/kg/injection, schedule: Q01DX009 (ip), vehicle: saline with Tween-80

For `CN1CCN=C1c1ccc(NC(=O)c2ccc(C(=O)Nc3ccc(C4=NCCN4C)cc3)cc2)cc1`, the T/C (dose: 0.8 mg/kg/injection, schedule: Q01DX009 (ip), vehicle: saline with Tween-80) was 129 % of control, the T/C (dose: 1.5 mg/kg/injection, schedule: Q01DX009 (ip), vehicle: saline with Tween-80) was 127 % of control and the T/C (dose: 1.6 mg/kg/injection, schedule: Q01DX009 (ip), vehicle: saline with Tween-80) was 125 % of control. For the same compound, the survivor count (dose: 12.5 mg/kg/injection, schedule: Q04DX003 (ip), vehicle: saline with Tween-80) was 6 of 6, the survivor count (dose: 25.0 mg/kg/injection, schedule: Q04DX003 (ip), vehicle: saline with Tween-80) was 1 of 6 and the survivor count (dose: 100.0 mg/kg/injection, schedule: Q04DX003 (ip), vehicle: saline) was 1 of 6. The survivor count [1] was 0 of 6 and the survivor count [2] was 0 of 6.
For `CCN(CCO)CC(C)Nc1ccc([N+](=O)[O-])c2sc3ccccc3c(=O)c12` (centres undefined), the T/C (dose: 12.5 mg/kg/injection, schedule: Q01DX009 (ip), vehicle: saline with Tween-80) was 136 % of control and the survivor count [3] was 6 of 6.
With `CC(=N/N=C(N)N)/C(C)=N\Nc1ccc(Cl)cc1` the survivor count [1] was 1 of 6 and the survivor count [2] was 0 of 6.
`C=CC(=NC(C)(C)C)Nc1ccc(C(=O)OCC)cc1` was tested, and the survivor count [3] was 0 of 6.
For `COc1cc2c(c(OC)c1OC)-c1ccc(SC)c(=O)cc1[C@@H](NC(=O)NCCCl)CC2`, the T/C (dose: 2.66 mg/kg/injection, schedule: Q01DX009 (ip), vehicle: water) was 137 % of control, the T/C (dose: 2.7 mg/kg/injection, schedule: Q01DX009 (ip), vehicle: water) was 126 % of control and the T/C (dose: 3.0 mg/kg/injection, schedule: Q01DX009 (ip), vehicle: water) was 126 % of control. The T/C (dose: 4.0 mg/kg/injection, schedule: Q01DX009 (ip), vehicle: water) was 128 and 138 % of control, the T/C (dose: 6.0 mg/kg/injection, schedule: Q01DX009 (ip), vehicle: water) was 126 and 141 % of control and the T/C (dose: 9.0 mg/kg/injection, schedule: Q01DX009 (ip), vehicle: water) was 142 and 145 % of control. For the same compound, the survivor count (dose: 24.0 mg/kg/injection, schedule: Q01DX009 (ip), vehicle: water) was 6 of 6.
With `O=c1nc(Oc2ccc(Cl)cc2Cl)oc2cc(Cl)ccc12` the survivor count (dose: 240.0 mg/kg/injection, schedule: Q01DX005 (ip), vehicle: saline with Tween-80) was 5 of 6.
`Oc1ccc(/C=N/NC(=S)NN2CCOCC2)nc1` was tested, and the survivor count (dose: 50.0 mg/kg/injection, schedule: Q01DX009 (ip), vehicle: Klucel (hydroxypropylcellulose) (HPC)) was 6 of 6.
`Nc1ccc2nc[nH]c(=O)c2c1` was tested, and the survivor count (dose: 50.0 mg/kg/injection, schedule: Q01DX005 (ip), vehicle: Klucel (hydroxypropylcellulose) (HPC)) was 3 of 5 and 4 of 5, the survivor count (dose: 100.0 mg/kg/injection, schedule: Q01DX005 (ip), vehicle: Klucel (hydroxypropylcellulose) (HPC)) was 1 of 5 and the survivor count (dose: 200.0 mg/kg/injection, schedule: Q01DX005 (ip), vehicle: Klucel (hydroxypropylcellulose) (HPC)) was 0 of 5.
With `NC(=O)c1csc(C2OC(CO)C(O)C2O)n1` (centres undefined) the T/C (dose: 37.5 mg/kg/injection, schedule: Q01DX005 (ip), vehicle: water) was 129 % of control, the T/C (dose: 50.0 mg/kg/injection, schedule: Q01DX005 (ip), vehicle: saline) was 143 and 145 % of control [5 of 6 alive] and the T/C (dose: 50.0 mg/kg/injection, schedule: Q01DX005 (ip), vehicle: water) was 137 and 140 % of control. The T/C (dose: 75.0 mg/kg/injection, schedule: Q01DX005 (ip), vehicle: water) was 142 % of control, the T/C (dose: 100.0 mg/kg/injection, schedule: Q01DX005 (ip), vehicle: water) was 143 % of control and the T/C (dose: 150.0 mg/kg/injection, schedule: Q01DX005 (ip), vehicle: water) was 149 % of control. The T/C (dose: 200.0 mg/kg/injection, schedule: Q01DX005 (ip), vehicle: water) was 146 % of control, the T/C (dose: 220.0 mg/kg/injection, schedule: Q01DX009 (ip), vehicle: water, evaluated on day 45) was 180, 189, 194, 203, 209 % of control and the T/C (dose: 220.0 mg/kg/injection, schedule: Q01DX009 (ip), vehicle: water, evaluated on day 60) was 192 and 200 % of control. For the same compound, the T/C (dose: 330.0 mg/kg/injection, schedule: Q01DX009 (ip), vehicle: water, evaluated on day 45) was 190, 200 (2×), 207, 209, 219 % of control, the T/C (dose: 330.0 mg/kg/injection, schedule: Q01DX009 (ip), vehicle: water, evaluated on day 60) was 198 [9 of 10 alive], 199, 203, 211 % of control (2×) and the T/C (dose: 500.0 mg/kg/injection, schedule: Q01DX009 (ip), vehicle: water, evaluated on day 30) was 198 and 210 % of control. The T/C (dose: 500.0 mg/kg/injection, schedule: Q01DX009 (ip), vehicle: water, evaluated on day 45) was 198, 210, 219, 221 [8 of 9 alive], 227 [9 of 10 alive], 231 % of control and the T/C (dose: 500.0 mg/kg/injection, schedule: Q01DX009 (ip), vehicle: water, evaluated on day 60) was 202, 214 (2×), 227, 229 % of control.
